No constants are given. Whether binding was seen depends on the method and setting. Some results given as binding are weak or reduced against the parent protein; the word gives no strength.
Legend:
C-reactive protein [1] = target: T1, C-reactive protein (UniProt P02741); assay: ELISA; dose-response: same solid-phase protocol, 1 μg mammalian protein coated, increasing quantities of His-tagged pneumococcal protein from 0.8 to 200 pmoles per well; BSA as control; both purified
T1 sequence: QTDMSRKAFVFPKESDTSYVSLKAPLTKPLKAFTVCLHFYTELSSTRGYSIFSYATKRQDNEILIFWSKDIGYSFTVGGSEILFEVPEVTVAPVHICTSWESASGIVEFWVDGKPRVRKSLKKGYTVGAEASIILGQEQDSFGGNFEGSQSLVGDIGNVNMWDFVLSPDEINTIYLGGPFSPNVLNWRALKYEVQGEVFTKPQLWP

Amino acid sequences for entries named in this document (tags omitted). Residues count along the entry.
UniProt P15502, residues 27-786: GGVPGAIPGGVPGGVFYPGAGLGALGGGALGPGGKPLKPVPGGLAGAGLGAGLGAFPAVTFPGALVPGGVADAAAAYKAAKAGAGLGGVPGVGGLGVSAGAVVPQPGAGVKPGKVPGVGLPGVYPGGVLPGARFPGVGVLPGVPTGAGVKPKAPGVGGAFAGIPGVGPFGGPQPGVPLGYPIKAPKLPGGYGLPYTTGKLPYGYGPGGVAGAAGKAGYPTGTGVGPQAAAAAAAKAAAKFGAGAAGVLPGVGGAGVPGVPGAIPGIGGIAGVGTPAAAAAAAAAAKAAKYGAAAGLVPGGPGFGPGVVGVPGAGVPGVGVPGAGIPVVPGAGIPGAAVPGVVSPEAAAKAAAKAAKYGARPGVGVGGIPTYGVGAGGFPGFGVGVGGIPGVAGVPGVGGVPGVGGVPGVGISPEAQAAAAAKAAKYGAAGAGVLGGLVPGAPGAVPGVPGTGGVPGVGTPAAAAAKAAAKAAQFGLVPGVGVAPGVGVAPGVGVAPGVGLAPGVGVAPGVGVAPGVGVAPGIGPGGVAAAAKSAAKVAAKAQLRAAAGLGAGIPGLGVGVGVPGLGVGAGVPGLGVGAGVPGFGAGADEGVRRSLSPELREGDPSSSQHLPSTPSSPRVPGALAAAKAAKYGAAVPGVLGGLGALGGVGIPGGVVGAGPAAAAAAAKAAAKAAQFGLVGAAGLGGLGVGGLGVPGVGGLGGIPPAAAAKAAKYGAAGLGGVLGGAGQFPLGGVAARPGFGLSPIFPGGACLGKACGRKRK
UniProt Q9KGY8: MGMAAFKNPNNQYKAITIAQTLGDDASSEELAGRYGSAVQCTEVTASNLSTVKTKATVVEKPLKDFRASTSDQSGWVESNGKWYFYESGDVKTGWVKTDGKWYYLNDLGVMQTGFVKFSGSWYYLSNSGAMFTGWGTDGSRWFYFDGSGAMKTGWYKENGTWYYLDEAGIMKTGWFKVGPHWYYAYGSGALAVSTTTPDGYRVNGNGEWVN

elastin [2] = target: elastin (UniProt P15502); assay: as above
C-reactive protein [3] = target: T1, C-reactive protein; assay: ELISA; solid-phase screen: 1 μg mammalian protein in 100 μL PBS pH7.0 coated on white 96 well plates overnight at 4°C; saturation 1 h with PBS 2% BSA; 200 pmole His-Tagged pneumococcal protein in 100 μL PBS for two hours at room temperature; washes PBS, Tween 0,03%; anti His-HRP antibody, ECL luminescence; positive = twice the BSA negative control in the majority of at least 3 independent experiments; both purified
elastin [4] = target: elastin (UniProt P15502); assay: as above

Measured: binding

CbpI (from UniProt Q9KGY8 1-211)
binds: all assays above
